{
  "source": "PubChem BioAssay (NCATS)",
  "note": "This list was built around the results that the source calls inconclusive (neither active nor inactive); the mix of calls is not that of the screen. Where the call is inconclusive, the potency comes from a doubtful curve fit. The source made the active and inactive calls. Calls follow the shape of the dose curve; as a rule, active = well fitted cell-killing curve with a large enough effect; inconclusive = small, poorly fitted or top-dose-only effect, or effect the other way; inactive = no such curve, though single readings can be large or run the other way. Also: nearly all actives have a fitted effect of over 65% in size. Potency is read from the fitted curve at half-maximal effect.",
  "data": [
    {"assay": "Quantitative High-Throughput drug screen in 47 multiple myeloma cell lines against the NCATS MIPE library collection: OCIMY7_PLB cell viability assay (AID 1918987)", "conditions": "OCI-MY7 myeloma viability, CellTiter-Glo ATP, 48 h; series mostly up to 45.8 µM", "method_in_brief": "(§1)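 qHTS format: cells plated (500/well), pin-dosed with MIPE 4.0 compounds, kept 48 h at 37 °C. Readout was CellTiter-Glo luminescence, median RLU.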", "values": [
      {"smiles": "CN(C)c1cc(NC(=O)CNC(C)(C)C)c(O)c2c1C[C@@H]1C[C@H]3[C@H](N(C)C)C(=O)C(C(N)=O)=C(O)[C@@]3(O)C(=O)C1=C2O", "Potency": "inconclusive: 37.2 µM [cytotoxic, single point]"},
      {"smiles": "CC(C)(O)[C@H]1CC[C@@](C)([C@H]2[C@@H](O)C[C@@]3(C)[C@@H]4C[C@H](O[C@@H]5O[C@H](CO)[C@@H](O)[C@H](O)[C@@H]5O)[C@H]5C(C)(C)[C@@H](O[C@@H]6OC[C@@H](O)[C@H](O)[C@@H]6O)CC[C@@]56C[C@@]46CC[C@]23C)O1", "Potency": "inactive"},
      {"smiles": "COc1ccc2cc([C@H](C)C(=O)O)ccc2c1", "Potency": "active: 33.2 µM"},
      {"smiles": "COC(=O)Nc1ccc(-c2nc(N3CCOCC3)c3cnn(C4CCN(C(=O)OC)CC4)c3n2)cc1", "Potency": "active: 0.0235 µM"},
      {"smiles": "O=Nc1c(-c2c(O)[nH]c3cc(Br)ccc23)[nH]c2ccccc12", "Potency": "active: 1.87 µM"},
      {"smiles": "NS(=O)(=O)c1cccc2c1C(=O)c1cccc(O)c1C2=O", "Potency": "active: 0.118 µM"},
      {"smiles": "C=C(c1ccc(C(=O)O)cc1)c1cc2c(cc1C)C(C)(C)CCC2(C)C", "Potency": "inconclusive: 0.235 µM [rising, full curve, poor fit]"},
      {"smiles": "Cc1ccc(C(=O)Nc2cccc(C(F)(F)F)c2)cc1Nc1nc(-c2cccnc2)nc2c1cnn2C", "Potency": "inconclusive: 14.8 µM [cytotoxic, partial curve, poor fit]"},
      {"smiles": "CNC[C@H](O)c1ccc(O)c(O)c1", "Potency": "inconclusive: 42.9 µM [cytotoxic, partial curve, poor fit]"},
      {"smiles": "N[C@@H](Cc1c[nH]c2ccc(O)cc12)C(=O)O", "Potency": "inactive"},
      {"smiles": "Cc1cc2c(s1)Nc1ccccc1N=C2N1CCN(C)CC1", "Potency": "inconclusive: 0.0118 µM [rising, full curve, poor fit]"},
      {"smiles": "CCN(CC)C(=S)SSC(=S)N(CC)CC", "Potency": "active: 0.001 µM"},
      {"smiles": "Oc1ccc2ccccc2c1SSc1c(O)ccc2ccccc12", "Potency": "active: 4.69 µM"},
      {"smiles": "CC[C@]1(O)C[C@@H]2CN(CCc3c([nH]c4ccccc34)[C@@](C(=O)OC)(c3cc4c(cc3OC)N(C=O)[C@@H]3C45CCN4CC=C[C@](CC)([C@H]45)[C@@H](OC(C)=O)[C@]3(O)C(=O)OC)C2)C1", "note": "(some centres undefined)", "Potency": "active: 9.35 µM"},
      {"smiles": "COC(=O)C1=CO[C@@H](O)[C@@H]2C(CO)=CC[C@@H]12", "Potency": "inconclusive: 20.9 µM [cytotoxic, partial curve, poor fit]"},
      {"smiles": "O=C(O)c1ccccc1C(=O)Nc1ccc(-c2ccccc2)cc1", "Potency": "inactive"},
      {"smiles": "COc1ccc(-c2coc3cc(O)cc(O)c3c2=O)cc1", "Potency": "inactive"},
      {"smiles": "NC1CCC(Nc2nc(Nc3ccc(C(=O)N4CCCCC4)cc3)c3ncn(-c4cccc(F)c4)c3n2)CC1", "note": "(centres undefined)", "Potency": "inconclusive: 0.0148 µM [rising, full curve, poor fit]"},
      {"smiles": "Cc1ccnc2c1NC(=O)c1cccnc1N2C1CC1", "Potency": "inconclusive: 2.64 µM [cytotoxic, partial curve, poor fit]"},
      {"smiles": "CN(c1ncccc1CNc1nc(Nc2ccc3c(c2)CC(=O)N3)ncc1C(F)(F)F)S(C)(=O)=O", "Potency": "inconclusive: 3.32 µM [cytotoxic, full curve, poor fit]"},
      {"smiles": "CC(C)(O)c1cc2nc(-c3cnc(N)nc3)nc(N3CCOCC3)c2s1", "Potency": "active: 0.372 µM"}
    ]},
    {"assay": "Quantitative High-Throughput drug screen in 47 multiple myeloma cell lines against the NCATS MIPE library collection: OCIMY5_PLB cell viability assay (AID 1918988)", "conditions": "OCI-MY5 myeloma viability, ATP luminescence, 48 h; series mostly up to 45.8 µM", "method_in_brief": "as §1", "values": [
      {"smiles": "CN(C)c1cc(NC(=O)CNC(C)(C)C)c(O)c2c1C[C@@H]1C[C@H]3[C@H](N(C)C)C(=O)C(C(N)=O)=C(O)[C@@]3(O)C(=O)C1=C2O", "Potency": "inactive"},
      {"smiles": "CC(C)(O)[C@H]1CC[C@@](C)([C@H]2[C@@H](O)C[C@@]3(C)[C@@H]4C[C@H](O[C@@H]5O[C@H](CO)[C@@H](O)[C@H](O)[C@@H]5O)[C@H]5C(C)(C)[C@@H](O[C@@H]6OC[C@@H](O)[C@H](O)[C@@H]6O)CC[C@@]56C[C@@]46CC[C@]23C)O1", "Potency": "inconclusive: 33.2 µM [rising, single point]"},
      {"smiles": "COC(=O)Nc1ccc(-c2nc(N3CCOCC3)c3cnn(C4CCN(C(=O)OC)CC4)c3n2)cc1", "Potency": "active: 1.18 µM"},
      {"smiles": "O=NN(CCCl)C(=O)NCCCl", "Potency": "inconclusive: 0.0033 µM [rising, full curve, poor fit]"},
      {"smiles": "C=C(c1ccc(C(=O)O)cc1)c1cc2c(cc1C)C(C)(C)CCC2(C)C", "Potency": "inconclusive: 9.35 µM [cytotoxic, full curve, poor fit]"},
      {"smiles": "COc1ccc2c3c1OC1C[C@@H](O)C=C[C@@]31CCN(C)C2", "note": "(some centres undefined)", "Potency": "active: 10.5 µM"},
      {"smiles": "NC(CO)C(=O)NNCc1ccc(O)c(O)c1O", "note": "(centres undefined)", "Potency": "inconclusive: 18.7 µM [cytotoxic, partial curve, poor fit]"},
      {"smiles": "CNC[C@H](O)c1ccc(O)c(O)c1", "Potency": "inconclusive: 0.003 µM [cytotoxic, full curve, poor fit]"},
      {"smiles": "CC1(C)CCC2=C(O1)c1ccccc1C(=O)C2=O", "Potency": "active: 18.7 µM"},
      {"smiles": "CCn1cc(C(=O)O)c(=O)c2cc(F)c(N3CCNC(C)C3)c(F)c21", "note": "(centres undefined)", "Potency": "inactive"},
      {"smiles": "N[C@@H](Cc1c[nH]c2ccc(O)cc12)C(=O)O", "Potency": "inactive"},
      {"smiles": "Cc1cc2c(s1)Nc1ccccc1N=C2N1CCN(C)CC1", "Potency": "inconclusive: 37.2 µM [cytotoxic, single point]"},
      {"smiles": "CN1CCC(=C2c3ccccc3CCc3sccc32)CC1", "Potency": "inactive"},
      {"smiles": "Oc1ccc2ccccc2c1SSc1c(O)ccc2ccccc12", "Potency": "active: 14.8 µM"},
      {"smiles": "CC[C@]1(O)C[C@@H]2CN(CCc3c([nH]c4ccccc34)[C@@](C(=O)OC)(c3cc4c(cc3OC)N(C=O)[C@@H]3C45CCN4CC=C[C@](CC)([C@H]45)[C@@H](OC(C)=O)[C@]3(O)C(=O)OC)C2)C1", "note": "(some centres undefined)", "Potency": "active: 20.9 µM"},
      {"smiles": "COC(=O)C1=CO[C@@H](O)[C@@H]2C(CO)=CC[C@@H]12", "Potency": "inconclusive: 18.7 µM [cytotoxic, partial curve, poor fit]"},
      {"smiles": "C=C1C(=O)[C@@]23C(CC[C@@H]1[C@H]2O)[C@@]12CO[C@]3(O)[C@@H](O)[C@@H]1C(C)(C)CC[C@@H]2O", "note": "(some centres undefined)", "Potency": "active: 1.87 µM"},
      {"smiles": "O=C(O)c1ccccc1C(=O)Nc1ccc(-c2ccccc2)cc1", "Potency": "inactive"},
      {"smiles": "COc1ccc(-c2coc3cc(O)cc(O)c3c2=O)cc1", "Potency": "inconclusive: 0.0074 µM [rising, full curve, poor fit]"},
      {"smiles": "NC1CCC(Nc2nc(Nc3ccc(C(=O)N4CCCCC4)cc3)c3ncn(-c4cccc(F)c4)c3n2)CC1", "note": "(centres undefined)", "Potency": "inconclusive: 37.2 µM [cytotoxic, single point]"},
      {"smiles": "Cc1ccnc2c1NC(=O)c1cccnc1N2C1CC1", "Potency": "inactive"},
      {"smiles": "O=C(NCc1ccccc1)c1csc(Nc2ccncn2)n1", "Potency": "inconclusive: 9.35 µM [cytotoxic, partial curve, poor fit]"},
      {"smiles": "CC(C)(O)c1cc2nc(-c3cnc(N)nc3)nc(N3CCOCC3)c2s1", "Potency": "active: 0.105 µM"}
    ]}
  ]
}
